Measured values: publication PMC10247153

Target: T1, KDM5C ARID (Homo sapiens) (UniProt P41229)
T1 sequence (looked up): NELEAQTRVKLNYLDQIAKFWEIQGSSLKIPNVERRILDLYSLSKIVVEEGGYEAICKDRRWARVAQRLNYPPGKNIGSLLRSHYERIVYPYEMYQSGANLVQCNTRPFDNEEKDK
Experiment: EMSA
Details: minimal binding, no Kd given; EMSA: 50 mM HEPES pH 7.5, 50 mM KCl, 1 mM BME, 0.01% Tween-20, 0.01% BSA, 5% sucrose, 1 h on ice; 100 nM nucleosome or 147 bp DNA, 500 nM 20 bp DNA; gel at 4 C; recombinant protein; residues 73-188; protein details: 6xHis-SUMO cleaved

Sequence: GCCGGTCGCGAACAGCGACC (double strand) [3' flanking (linker) DNA 20 bp]
- binding result: binds more weakly

Weaker means in comparison with the reference protein, sequence or condition of that experiment. Where a protein sequence is shown, tags need not be part of it.
